Numbering of substitutions follows the chain as printed. These are yes or no findings as the source states them, for the method shown. Some entries that bind do so weakly or less than the wild type. For some of these results: Where a sequence is shown, tags or fusion partners need not be part of it. Blank lines part the entries; values can stand above or below the binder they belong to.
Legend:
[1] = molecular target: native TasA fibres extracted from B. subtilis (B. subtilis (endogenous)) (UniProt P54507); experiment: negative-stain transmission electron microscopy
[2] = molecular target: monomeric serine-tagged TasA (B. subtilis NCIB3610) (UniProt P54507); experiment: negative-stain transmission electron microscopy
[3] = molecular target: monomeric serine-tagged TasA (B. subtilis NCIB3610) (UniProt P54507); experiment: SEC
[4] = molecular target: TasA(28-261) with a single glutamic acid added to the N-terminus (B. subtilis NCIB3610) (UniProt P54507); experiment: SEC
[5] = molecular target: TasA(28-261) with a single lysine added to the N-terminus (B. subtilis NCIB3610) (UniProt P54507); experiment: SEC
[6] = molecular target: TasA(28-261) with a single phenylalanine added to the N-terminus (B. subtilis NCIB3610) (UniProt P54507); experiment: SEC
[7] = molecular target: TasA(28-261) with a single alanine added to the N-terminus (B. subtilis NCIB3610) (UniProt P54507); experiment: SEC

binding [1]: binds
B1: recombinant B. subtilis TasA(28-261), fibre-forming (natural protein, B. subtilis NCIB3610, UniProt P54507 28-261, looked up)
chain: AFNDIKSKDATFASGTLDLSAKENSASVNLSNLKPGDKLTKDFQFENNGSLAIKEVLMALNYGDFKANGGSNTSPEDFLSQFEVTLLTVGKEGGNGYPKNIILDDANLKDLYLMSAKNDAAAAEKIKKQIDPKFLNASGKVNVATIDGKTAPEYDGVPKTPTDFDQVQMEIQFKDDKTKDEKGLMVQNKYQGNSIKLQFSFEATQWNGLTIKKDHTDKDGYVKENEKAHSEDKN

binding [2]: no binding
binding [3]: no binding
B2: monomeric serine-tagged TasA (protein, UniProt P54507 28-261)
chain: SAFNDIKSKDATFASGTLDLSAKENSASVNLSNLKPGDKLTKDFQFENNGSLAIKEVLMALNYGDFKANGGSNTSPEDFLSQFEVTLLTVGKEGGNGYPKNIILDDANLKDLYLMSAKNDAAAAEKIKKQIDPKFLNASGKVNVATIDGKTAPEYDGVPKTPTDFDQVQMEIQFKDDKTKDEKGLMVQNKYQGNSIKLQFSFEATQWNGLTIKKDHTDKDGYVKENEKAHSEDKN

binding [4]: no binding
B3: TasA(28-261) with a single glutamic acid added to the N-terminus (protein, UniProt P54507 28-261)
chain: B2 chain with S1E

binding [5]: no binding
B4: TasA(28-261) with a single lysine added to the N-terminus (protein, UniProt P54507 28-261)
chain: B2 chain with S1K

binding [6]: no binding
B5: TasA(28-261) with a single phenylalanine added to the N-terminus (protein, UniProt P54507 28-261)
chain: B2 chain with S1F

binding [7]: no binding
B6: TasA(28-261) with a single alanine added to the N-terminus (protein, UniProt P54507 28-261)
chain: B2 chain with S1A
